The assay has as its target T1, Flag-PBK (human) (UniProt Q96KB5).
T1 sequence: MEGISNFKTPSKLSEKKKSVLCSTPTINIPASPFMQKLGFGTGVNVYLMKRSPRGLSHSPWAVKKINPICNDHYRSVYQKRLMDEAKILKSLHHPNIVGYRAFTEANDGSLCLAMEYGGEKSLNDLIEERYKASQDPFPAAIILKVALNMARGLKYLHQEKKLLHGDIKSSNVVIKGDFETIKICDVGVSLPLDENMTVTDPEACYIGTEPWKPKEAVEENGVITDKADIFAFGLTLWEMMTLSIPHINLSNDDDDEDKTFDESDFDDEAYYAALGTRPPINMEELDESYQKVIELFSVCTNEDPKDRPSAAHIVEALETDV
Briefly: affinity purification with mass spectrometry; 293T cells transfected with Flag-PBK or vector for 48 h; IP lysis buffer (50 mM Tris-Cl pH 7.4, 150 mM NaCl, 0.5% NP-40, 5 mM EDTA); Flag affinity agarose beads overnight at 4 °C; SDS-PAGE, silver staining, indicated bands to mass spectrometry.

These are yes or no findings as the source states them, for the method shown. In cells and extracts the contact can be indirect. These calls come from enrichment with a bait or labelling near it, and not all partners need be listed. Sequences can lack the tags named with a protein.

B1: MSL1 (male-specific lethal 1 homolog), endogenous in 293T cells (protein, UniProt Q68DK7 1-614)
chain: MTMRSAVFKAAAAPAGGNPEQRLDYERAAALGGPEDEPGAAEAHFLPRHRKLKEPGPPLASSQGGSPAPSPAGCGGKGRGLLLPAGAAPGQQEESWGGSVPLPCPPPATKQAGIGGEPAAAGAGCSPRPKYQAVLPIQTGSLVAAAKEPTPWAGDKGGAASPAATASDPAGPPPLPLPGPPPLAPTATAGTLAASEGRWKSMRKSPLGGGGGSGASSQAACLKQILLLQLDLIEQQQQQLQAKEKEIEELKSERDTLLARIERMERRMQLVKKDNEKERHKLFQGYETEEREETELSEKIKLECQPELSETSQTLPPKPFSCGRSGKGHKRKSPFGSTERKTPVKKLAPEFSKVKTKTPKHSPIKEEPCGSLSETVCKRELRSQETPEKPRSSVDTPPRLSTPQKGPSTHPKEKAFSSEIEDLPYLSTTEMYLCRWHQPPPSPLPLRESSPKKEETVARCLMPSSVAGETSVLAVPSWRDHSVEPLRDPNPSDLLENLDDSVFSKRHAKLELDEKRRKRWDIQRIREQRILQRLQLRMYKKKGIQESEPEVTSFFPEPDDVESLMITPFLPVVAFGRPLPKLTPQNFELPWLDERSRCRLEIQKKQTPHRTCRK
As to B1, the binding result is reported as “binds”.

Source of the values: article PMC7801519.
